Here are results for four molecules from the odorant receptor screen of Mainland et al. (2015).

Holding throughout (assay): odorant receptor activation (CRE luciferase / Renilla) (fold of no-odor wells); higher = more activation
Common to all, as to details: 100 µM

Test [1] deals with OR2Z1 clone 1296.
Test [2] has as its system OR3A1 clone 1288.
For test [3], the system named is OR3A2 clone 1286.
The test system of test [4] is OR3A3 clone 1549.
Test [5] concerns OR3A4 I42V/S86R/E103Q/I120V/P168T/N175S clone 1550.
The subject of test [6] is OR4A15 A257V clone 1216.
The test system of test [7] is OR4A16 clone 1518.
Test [8] has as its system OR4A4 clone 1134.
Test [9] concerns OR4A47 I104L/V145M clone 1579.
Test [10] concerns OR4A5 clone 1637.
For test [11], the system named is OR4B1 clone 1189.
Test [12] deals with OR4C11 clone 1244.
The subject of test [13] is OR4C12 V283L clone 1155.
Test [14] concerns OR4C15 clone 1337.
In test [15] the test system is OR4C15 clone 1449.
The test system of test [16] is OR4C16 V25L/T76A/L259P clone 1237.
The test system of test [17] is OR4C3 clone 1284.
Test [18] relates to OR4C3 clone 1480.
Test [19] deals with OR4C46 K288R clone 1483.
Test [20] relates to OR4C5 clone 1307.

Values joined by “and” are separate entries in the source; they are usually repeats but may differ in a detail not shown here. Equal values may be shown once. Some of the results follow. Single wells; the ratio to wells without odorant was worked out here, and repeats agree poorly.

Consider `CCCCOC(C)=O` [butyl acetate], for which the odorant receptor activation came to 0.852 in [1]; 0.909 in test [2]; 0.931 in test [3]; 0.961 in [4]; 1.1 in test [5]; 1.03 in [6]. Besides, the odorant receptor activation in test [7] was found to be 1.11; in test [8], 1.11; in [9], 0.645; in test [10], 0.765; in test [11] it was 1.07; in [12], 0.861. For the same molecule, the odorant receptor activation in test [13] turned out to be 1.12; in test [14], 0.729; in test [15], 0.177; in test [16], 0.892; in test [17] it was 0.806; in [18] it was 0.887. For the same molecule, the odorant receptor activation came to 0.968 in [19] and 0.803 in [20].
Consider `CCC(C)=O` [2-butanone], for which the odorant receptor activation in test [1] came out at 0.932; in test [2] it was 0.874; in test [3], 0.812; in test [4], 0.799; in [5] it was 0.739; in test [6], 0.892. The odorant receptor activation in [7] is 1.28; in [8], 0.926; in test [9] it was 0.719; in [10], 0.847; in [11], 0.765; in test [12] it was 1.4. For the same molecule, the odorant receptor activation in test [13] was found to be 1.03; in test [14], 1.14; in [15] it was 0.956; in test [16], 0.925; in [17], 0.966; in test [18], 0.823. In addition, the figures for the odorant receptor activation in [19] and in [20] were 1.08 and 1.19, respectively.
On to `CCOc1cc(C=O)ccc1O` [ethyl vanillin], for which the odorant receptor activation in test [1] is 2.41 and 0.825; in test [3], 1.09 and 0.765; in test [4], 0.877; in test [5] it was 0.953; in test [6], 1.39 and 1.42; in test [7] it was 1.12 and 2.17 and 0.921. In addition, the odorant receptor activation in test [8] was 0.872 and 1.25; in test [9] it was 0.684; in [10], 0.969; in test [11] it was 1.47 and 1.15; in test [12] it was 1.21 and 0.974; in test [13], 2 and 1.16. In addition, the odorant receptor activation in test [14] was 0.849 and 1.17; in test [15], 1.36 and 1.96 and 1.38; in test [16], 0.799; in [17], 1.47 and 1.19; in test [18], 1.18 and 2.48 and 1.25; in test [19], 1.24 and 2.47 and 1.23. Also, the odorant receptor activation in [20] is 1.16 and 1.15.
On to `CS` [methanethiol], for which the odorant receptor activation in test [1] stood at 0.586; in test [2] it was 1.14; in [3], 1.01; in test [4] it was 0.588; in [5], 0.682; in [6], 1.07. Further, the odorant receptor activation worked out at 0.945 in test [7]; 0.91 in test [8]; 0.745 in [9]; 0.782 in test [10]; 0.964 in [11]; 0.71 in test [12]. The odorant receptor activation in [13] was 1.16; in test [14] it was 0.913; in test [15], 0.959; in test [16], 0.882; in test [17] it was 0.89; in [18], 0.786. Also, the values for the odorant receptor activation in [19] and in test [20] were 0.884 and 0.809, respectively.
